# Data reported in PMC13410438 (Small (Weinheim an Der Bergstrasse, Germany), 2026).
# Strings that start with PEPTIDE1 are HELM notation: dots part the residues, brackets hold end groups and non-standard residues.
# Assay: general procedure: Fmoc solid-phase peptide synthesis; 2-chlorotrityl chloride (2-CTC) resin (100-200 mesh); HBTU, HOBt, DIPEA
# Conditions: whole synthesis
substance,measurement,setting,value
"PEPTIDE1{[Ole].[Dap].K.K.K}|PEPTIDE2{[Ole]}$PEPTIDE1,PEPTIDE2,2:R3-1:R2$$$V2.0",isolated mass,,25.1 mg
same,isolated yield,scale of the general procedure 300.8 µmol,81%
